Source: patent US20260242495A1 (PROMETHEUS BIOSCIENCES, published 2026)
No constants are given. Whether binding was seen depends on the method and setting. Some results given as binding are weak or reduced against the parent protein; the word gives no strength.

Molecular target: T1, DR3 receptor on human TF-1 cells (human) (UniProt Q93038)
T1 sequence (looked up): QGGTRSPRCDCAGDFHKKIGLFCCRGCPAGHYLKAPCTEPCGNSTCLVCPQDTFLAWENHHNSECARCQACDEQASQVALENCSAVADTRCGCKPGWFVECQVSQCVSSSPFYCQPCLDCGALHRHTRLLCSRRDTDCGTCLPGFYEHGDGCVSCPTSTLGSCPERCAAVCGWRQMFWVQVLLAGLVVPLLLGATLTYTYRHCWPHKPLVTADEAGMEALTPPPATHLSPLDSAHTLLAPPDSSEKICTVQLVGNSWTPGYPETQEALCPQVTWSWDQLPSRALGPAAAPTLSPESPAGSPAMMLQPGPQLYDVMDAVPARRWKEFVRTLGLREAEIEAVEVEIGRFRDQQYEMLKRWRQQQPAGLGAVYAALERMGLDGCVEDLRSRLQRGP
Test: TF-1 cell caspase activation assay

binding: binds
B1: human TL1A (recombinant, soluble) (ligand, UniProt O95150 72-251, looked up)
chain: LKGQEFAPSHQQVYAPLRADGDKPRAHLTVVRQTPTQHFKNQFPALHWEHELGLAFTKNRMNYTNKFLLIPESGDYFIYSQVTFRGMTSECSEIRQAGRPNKPDSITVVITKVTDSYPEPTQLLMGTKSVCEVGSNWFQPIYLGAMFSLQEGDKLMVNVSDISLVDYTKEDKTFFGAFLL
